Results are given in words; binding and its absence hold for the method and conditions named. Binding seen in cells or lysates may run through a third protein. Some results given as binding are weak or reduced against the parent protein; the word gives no strength.
Target: 6-His LRRK2 1-552 (UniProt Q5S007)
Test: pull-down

Protein sequences, listed by entry. Tags and fused reporters are not part of them. Residues count along the entry.
UniProt Q5S007, residues 1-552: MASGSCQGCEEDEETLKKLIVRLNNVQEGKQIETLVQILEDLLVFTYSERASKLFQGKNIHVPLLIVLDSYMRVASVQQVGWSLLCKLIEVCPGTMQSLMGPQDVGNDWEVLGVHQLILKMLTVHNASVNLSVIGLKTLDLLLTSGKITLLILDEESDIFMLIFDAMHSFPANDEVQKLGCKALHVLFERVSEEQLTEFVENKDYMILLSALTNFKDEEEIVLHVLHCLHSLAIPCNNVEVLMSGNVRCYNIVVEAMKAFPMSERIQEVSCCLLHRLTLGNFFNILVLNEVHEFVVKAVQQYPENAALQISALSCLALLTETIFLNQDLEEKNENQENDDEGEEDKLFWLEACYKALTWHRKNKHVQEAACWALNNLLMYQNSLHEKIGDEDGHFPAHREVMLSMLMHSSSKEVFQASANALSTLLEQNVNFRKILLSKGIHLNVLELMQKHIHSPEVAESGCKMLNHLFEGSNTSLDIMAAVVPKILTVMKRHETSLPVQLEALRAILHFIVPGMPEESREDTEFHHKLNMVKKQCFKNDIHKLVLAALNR

B1: transgenic Rab29 (protein, UniProt Q91YQ1 1-204)
chain: MGSRDHLFKVLVVGDAAVGKTSLVQRYSQDSFSKHYKSTVGVDFALKVLQWSDSEMVRLQLWDIAGQERFTSMTRLYYRDASACVIMFDVTNATTFSNSQRWKQDLDSKLTLPSGEPVPCLLLANKSDLSPWAVSRDQIDRFSKENGFTGWTETSVKENKNINEAMRVLVEKMMNNSREDVMSLSTQGNYINLQAKPSSGWTCC
- binding: binds

B2: endogenously expressed wildtype Rab29 (protein, UniProt Q91YQ1 1-204)
chain: MGSRDHLFKVLVVGDAAVGKTSLVQRYSQDSFSKHYKSTVGVDFALKVLQWSDSEMVRLQLWDIAGQERFTSMTRLYYRDASACVIMFDVTNATTFSNSQRWKQDLDSKLTLPSGEPVPCLLLANKSDLSPWAVSRDQIDRFSKENGFTGWTETSVKENKNINEAMRVLVEKMMNNSREDVMSLSTQGNYINLQAKPSSGWTCC
- binding: binds
